Reference: PMC5264588, “ER residency of the ceramide phosphoethanolamine synthase SMSr relies on homotypic oligomerization mediated by its SAM domain” (Scientific Reports, 2017)
No constants are given. Whether binding was seen depends on the method and setting. For some assays here: In cells and extracts the contact can be indirect. Some binding calls cover weakened binding; strength is not graded here. Where a sequence is shown, tags or fusion partners need not be part of it. Each block holds one binder with its values, some of them ahead of it.

B6: V5/His6-tagged SMSr (enzyme, human, UniProt Q96LT4 1-415, looked up)
chain: MAGPNQLCIRRWTTKHVAVWLKDEGFFEYVDILCNKHRLDGITLLTLTEYDLRSPPLEIKVLGDIKRLMLSVRKLQKIHIDVLEEMGYNSDSPMGSMTPFISALQSTDWLCNGELSHDCDGPITDLNSDQYQYMNGKNKHSVRRLDPEYWKTILSCIYVFIVFGFTSFIMVIVHERVPDMQTYPPLPDIFLDSVPRIPWAFAMTEVCGMILCYIWLLVLLLHKHRSILLRRLCSLMGTVFLLRCFTMFVTSLSVPGQHLQCTGKIYGSVWEKLHRAFAIWSGFGMTLTGVHTCGDYMFSGHTVVLTMLNFFVTEYTPRSWNFLHTLSWVLNLFGIFFILAAHEHYSIDVFIAFYITTRLFLYYHTLANTRAYQQSRRARIWFPMFSFFECNVNGTVPNEYCWPFSKPAIMKRLIG
notes: SMSr (SAMD8), ceramide phosphoethanolamine synthase, human, UniProt Q96LT4; the cDNA was PCR amplified and cloned with a C-terminal V5/His6 tag; also called SMSr-V5; SAMD8; source: HeLa, transfected (pcDNA3.1/V5-His TOPO), in detergent extract; not shown: V5, C-terminal, kept; His6, C-terminal, kept

Key:
scGFP-SMSr-SAM (human) = scGFP-SMSr-SAM (human) (UniProt Q96LT4); assay: native gel or EMSA; bacterial lysates with scGFP fusions of SAM domains run on a native gel (27.3 mM Tris-HCl, 192 mM glycine, 4 °C), in-gel GFP fluorescence; lysis buffer with 1 M NaCl, 1 mM TCEP
[1] = target: T1, V5/His6-tagged SMSr^L62E/G63D/K66E (SMSr^OD) (human) (UniProt Q96LT4); assay: co-IP; HeLa (wild-type or SMSr-/-) cells co-transfected with V5/His6- and HA-tagged constructs, solubilized with detergent with 10 mM NEM; anti-V5 immunoprecipitation, immunoblot with anti-V5 and anti-HA
T1 sequence: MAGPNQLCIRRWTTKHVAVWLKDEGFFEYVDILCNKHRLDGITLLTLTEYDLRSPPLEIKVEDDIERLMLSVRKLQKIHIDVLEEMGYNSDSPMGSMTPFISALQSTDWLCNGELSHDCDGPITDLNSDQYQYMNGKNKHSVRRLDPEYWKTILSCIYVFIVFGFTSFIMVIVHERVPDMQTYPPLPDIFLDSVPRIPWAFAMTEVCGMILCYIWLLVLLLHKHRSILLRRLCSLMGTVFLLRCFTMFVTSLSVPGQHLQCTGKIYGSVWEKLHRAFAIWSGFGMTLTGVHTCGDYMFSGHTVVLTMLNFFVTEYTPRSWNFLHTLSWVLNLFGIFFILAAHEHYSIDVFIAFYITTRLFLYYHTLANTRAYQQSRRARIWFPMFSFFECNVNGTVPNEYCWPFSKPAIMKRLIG

[2] = target: V5-tagged SMSr^L62E (human) (UniProt Q96LT4); assay: SDS-resistant oligomers on SDS-PAGE of affinity-purified protein; HeLa cells transfected with one V5(/His6)-tagged construct; anti-V5 immunoprecipitates or Ni-NTA eluates, non-reducing SDS-PAGE, anti-V5 immunoblot; no cross-linker; oligomers mostly lost with 10 mM NEM in lysis or 100 mM DTT
[3] = target: V5-tagged SMSr^G63D (human) (UniProt Q96LT4); assay: as above
[4] = target: V5-tagged SMSr^K66E (human) (UniProt Q96LT4); assay: as above
V5/His6-tagged SMSr = target: B6; assay: SDS-resistant oligomers on SDS-PAGE of affinity-purified protein; HeLa cells with V5/His6-tagged SMSr treated with 50 μM curcumin (1-6 h), lysed with detergent and 10 mM NEM; anti-V5 immunoprecipitates or Ni-NTA eluates, reducing SDS-PAGE, anti-V5 immunoblot; also with zVAD-fmk, CERT over-expression, myriocin, fumonisin B1, HPA-12 or BAPTA-AM
[5] = target: T2, V5/His6-tagged SMSr^D348E (human) (UniProt Q96LT4); assay: co-IP; HeLa (wild-type or SMSr-/-) cells co-transfected with V5/His6- and HA-tagged constructs, solubilized with detergent with 10 mM NEM; anti-V5 immunoprecipitation, immunoblot with anti-V5 and anti-HA
T2 sequence: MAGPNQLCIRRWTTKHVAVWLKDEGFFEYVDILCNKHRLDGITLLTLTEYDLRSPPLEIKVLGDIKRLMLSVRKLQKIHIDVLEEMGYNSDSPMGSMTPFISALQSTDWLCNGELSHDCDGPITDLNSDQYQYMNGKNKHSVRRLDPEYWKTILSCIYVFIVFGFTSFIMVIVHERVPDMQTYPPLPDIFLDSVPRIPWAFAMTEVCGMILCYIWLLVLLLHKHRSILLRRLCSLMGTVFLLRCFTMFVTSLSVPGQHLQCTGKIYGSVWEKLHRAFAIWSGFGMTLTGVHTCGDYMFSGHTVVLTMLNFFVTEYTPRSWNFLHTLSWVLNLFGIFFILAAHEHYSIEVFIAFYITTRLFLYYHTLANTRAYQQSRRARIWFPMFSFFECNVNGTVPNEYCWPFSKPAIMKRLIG

scGFP-DGKδ-SAM (human) = scGFP-DGKδ-SAM (human) (UniProt Q16760); assay: native gel or EMSA; bacterial lysates with scGFP fusions of SAM domains run on a native gel (27.3 mM Tris-HCl, 192 mM glycine, 4 °C), in-gel GFP fluorescence; lysis buffer with 1 M NaCl, 1 mM TCEP

- binding (scGFP-SMSr-SAM (human)): binds
B1: scGFP-SMSr-SAM (domain or fragment, UniProt Q96LT4 12-78)
chain: WTTKHVAVWLKDEGFFEYVDILCNKHRLDGITLLTLTEYDLRSPPLEIKVLGDIKRLMLSVRKLQKI

- binding [1]: binds
B2: HA-tagged SMSr^L62E/G63D/K66E (SMSr^OD) (enzyme, human, UniProt Q96LT4 1-415, looked up)
chain: MAGPNQLCIRRWTTKHVAVWLKDEGFFEYVDILCNKHRLDGITLLTLTEYDLRSPPLEIKVEDDIERLMLSVRKLQKIHIDVLEEMGYNSDSPMGSMTPFISALQSTDWLCNGELSHDCDGPITDLNSDQYQYMNGKNKHSVRRLDPEYWKTILSCIYVFIVFGFTSFIMVIVHERVPDMQTYPPLPDIFLDSVPRIPWAFAMTEVCGMILCYIWLLVLLLHKHRSILLRRLCSLMGTVFLLRCFTMFVTSLSVPGQHLQCTGKIYGSVWEKLHRAFAIWSGFGMTLTGVHTCGDYMFSGHTVVLTMLNFFVTEYTPRSWNFLHTLSWVLNLFGIFFILAAHEHYSIDVFIAFYITTRLFLYYHTLANTRAYQQSRRARIWFPMFSFFECNVNGTVPNEYCWPFSKPAIMKRLIG
notes: SMSr (SAMD8), human, UniProt Q96LT4, with L62E, G63D and K66E; also called oligomerization-defective triple mutant; source: HeLa (wild-type or SMSr-/-), transfected, in detergent extract; not shown: HA, C-terminal, kept

- binding [2]: binds
B3: V5-tagged SMSr^L62E (enzyme, UniProt Q96LT4 1-415)
chain: MAGPNQLCIRRWTTKHVAVWLKDEGFFEYVDILCNKHRLDGITLLTLTEYDLRSPPLEIKVEGDIKRLMLSVRKLQKIHIDVLEEMGYNSDSPMGSMTPFISALQSTDWLCNGELSHDCDGPITDLNSDQYQYMNGKNKHSVRRLDPEYWKTILSCIYVFIVFGFTSFIMVIVHERVPDMQTYPPLPDIFLDSVPRIPWAFAMTEVCGMILCYIWLLVLLLHKHRSILLRRLCSLMGTVFLLRCFTMFVTSLSVPGQHLQCTGKIYGSVWEKLHRAFAIWSGFGMTLTGVHTCGDYMFSGHTVVLTMLNFFVTEYTPRSWNFLHTLSWVLNLFGIFFILAAHEHYSIDVFIAFYITTRLFLYYHTLANTRAYQQSRRARIWFPMFSFFECNVNGTVPNEYCWPFSKPAIMKRLIG

- binding [3]: binds
B4: V5-tagged SMSr^G63D (enzyme, UniProt Q96LT4 1-415)
chain: MAGPNQLCIRRWTTKHVAVWLKDEGFFEYVDILCNKHRLDGITLLTLTEYDLRSPPLEIKVLDDIKRLMLSVRKLQKIHIDVLEEMGYNSDSPMGSMTPFISALQSTDWLCNGELSHDCDGPITDLNSDQYQYMNGKNKHSVRRLDPEYWKTILSCIYVFIVFGFTSFIMVIVHERVPDMQTYPPLPDIFLDSVPRIPWAFAMTEVCGMILCYIWLLVLLLHKHRSILLRRLCSLMGTVFLLRCFTMFVTSLSVPGQHLQCTGKIYGSVWEKLHRAFAIWSGFGMTLTGVHTCGDYMFSGHTVVLTMLNFFVTEYTPRSWNFLHTLSWVLNLFGIFFILAAHEHYSIDVFIAFYITTRLFLYYHTLANTRAYQQSRRARIWFPMFSFFECNVNGTVPNEYCWPFSKPAIMKRLIG

- binding [4]: binds
B5: V5-tagged SMSr^K66E (enzyme, UniProt Q96LT4 1-415)
chain: MAGPNQLCIRRWTTKHVAVWLKDEGFFEYVDILCNKHRLDGITLLTLTEYDLRSPPLEIKVLGDIERLMLSVRKLQKIHIDVLEEMGYNSDSPMGSMTPFISALQSTDWLCNGELSHDCDGPITDLNSDQYQYMNGKNKHSVRRLDPEYWKTILSCIYVFIVFGFTSFIMVIVHERVPDMQTYPPLPDIFLDSVPRIPWAFAMTEVCGMILCYIWLLVLLLHKHRSILLRRLCSLMGTVFLLRCFTMFVTSLSVPGQHLQCTGKIYGSVWEKLHRAFAIWSGFGMTLTGVHTCGDYMFSGHTVVLTMLNFFVTEYTPRSWNFLHTLSWVLNLFGIFFILAAHEHYSIDVFIAFYITTRLFLYYHTLANTRAYQQSRRARIWFPMFSFFECNVNGTVPNEYCWPFSKPAIMKRLIG

Binder: B6
- binding (V5/His6-tagged SMSr): binds

- binding [5]: binds
B7: HA-tagged SMSr^D348E (enzyme, human, UniProt Q96LT4 1-415, looked up)
chain: MAGPNQLCIRRWTTKHVAVWLKDEGFFEYVDILCNKHRLDGITLLTLTEYDLRSPPLEIKVLGDIKRLMLSVRKLQKIHIDVLEEMGYNSDSPMGSMTPFISALQSTDWLCNGELSHDCDGPITDLNSDQYQYMNGKNKHSVRRLDPEYWKTILSCIYVFIVFGFTSFIMVIVHERVPDMQTYPPLPDIFLDSVPRIPWAFAMTEVCGMILCYIWLLVLLLHKHRSILLRRLCSLMGTVFLLRCFTMFVTSLSVPGQHLQCTGKIYGSVWEKLHRAFAIWSGFGMTLTGVHTCGDYMFSGHTVVLTMLNFFVTEYTPRSWNFLHTLSWVLNLFGIFFILAAHEHYSIEVFIAFYITTRLFLYYHTLANTRAYQQSRRARIWFPMFSFFECNVNGTVPNEYCWPFSKPAIMKRLIG
notes: SMSr (SAMD8), human, UniProt Q96LT4, with D348E; also called enzyme-dead SMSr; source: SMSr-/- HeLa, transfected, in detergent extract; not shown: HA, C-terminal, kept

- binding (scGFP-DGKδ-SAM (human)): binds
B8: scGFP-DGKδ-SAM (domain or fragment, UniProt Q16760 1145-1208)
chain: WGTEEVAAWLEHLSLCEYKDIFTRHDIRGSELLHLERRDLKDLGVTKVGHMKRILCGIKELSRS
